Data from patent publication EP0206730 (dated 1986).

How the values were obtained:
[1] = general procedure: Boc solid-phase peptide synthesis; benzhydrylamine resin (BHA); Boc-Arg(Tos)-O-Bzl-Resin for C-terminal acids; DCC/HBT; DMAP for Pmp(4-MeBzl); details: whole synthesis, scale of the general procedure 1.0 mmol
[2] = general procedure: Boc solid-phase peptide synthesis; Boc-Arg(Tos)-O-Bzl-Resin; DCC/HBT; DMAP for Pmp(4-MeBzl); details: whole synthesis, scale 1.0 mmol, one disulfide bridge, sequence written open
[3] = general procedure: Boc solid-phase peptide synthesis; Boc-Arg(Tos)-OCH2C6H4-Resin; DCC/HBT; DMAP for Pmp(4-MeBzl); details: whole synthesis, scale 1.0 mmol
[4] = general procedure: Boc solid-phase peptide synthesis; Boc-Cys(4-MeBzl)-chloromethylphenyl resin; DCC/HBT; DMAP for Pmp(4-MeBzl); details: whole synthesis, scale 0.5 mmol
[5] = general procedure: Boc solid-phase peptide synthesis; BHA; DCC/HBT; DMAP for Pmp(4-MeBzl); details: whole synthesis, one disulfide bridge, sequence written open
[6] = one disulfide bridge, sequence written open

| Substance | final purity (method not given) [1, 6] | crude mass ([5]; scale 1.0 mmol) [mg] | other results |
| --- | --- | --- | --- |
| Pmp-D-Tyr-(Et)-Phe-Val-Asn-Cys-Arg-Arg(OH) | 96.5% |  | isolated yield [1, 6]: 46.7%; isolated mass [2]: 549.62 mg |
| Pmp-D-Tyr(Et)-Phe-Val-Asn-Cys-Arg(OH) |  |  | isolated mass [3]: 245 mg; final purity (method not given) [1]: about 90% pure; isolated yield [1]: 25% |
| Pmp-D-Tyr(Et)-Phe-Val-Asn-Cys(OH) |  |  | isolated mass [4]: 80 mg |
| Pmp-D-Tyr (Et) -Phe-Val-Asn-Cvs-Arg-D-Arg (NH2) | 98% | 252.46 |  |
| Pmp-D-Tyr(Et)-Phe-Val-Asn-Cys-MeArgArgNH2 | 97-98% |  | crude mass ([5]; scale 0.5 mmol): 375 mg |
| Pmp-D-Tyr(Et)-Phe-Val-Asn-Cys-Arg-Lys(NH2) | 96-97% | 702.5 |  |
| Pmp-D-Tyr (Et) -Phe-Val-Asn-Cys-Lys-Arg (NH2) | 98-99% | 710.17 |  |
| Pmp-D-Tyr (Et) -Phe-Val-Asn-Cys-D-Arg-Arg (NH2) | 96-97% | 371.09 | crude yield [1, 6]: 35.2% |
| Pmp-D-Tyr (Et) -Phe-Val-Asn-Cys-Arg-Arg (NH2) | 96% | 284.19 |  |
